# Assay results as given in PubChem BioAssay AID1688 (National Center for Advancing Translational Sciences (NCATS), 2009).
# The whole screen tested about 220,000 compounds, of which about 2,400 (1.1%) were called active. Inconclusive results, whose numbers are uncertain, are shown with a selection of clear calls. Calls come from the whole dose curve; as a rule, active = well fitted inhibition curve with a large enough effect; inconclusive = small, poorly fitted or top-dose-only effect, or effect the other way; inactive = no such curve, though single readings can be large or run the other way. A potency beside an inconclusive call is a rough fit, not a confirmed value.
# Experiment: qHTS Multiplex Assay to Identify Dual Action Probes in a Cell Model of Huntington: Aggregate Formation (GFP); note: nearly all actives have a fitted effect of over 60% in size
# Settings: PC12 HttQ103-GFP aggregates, Acumen cytometry, 40 h; activity change, negative = inhibition: at 46.1 µM (top of the series) unless noted
# How it was run: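 PC12/HTTQ103-GFP, ecdysone-inducible; teb 100 nM; cpd qHTS titration; GFP aggregates read on laser cytometer, Ex 488/Em 500-530 nm.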
# % is set by controls: 0 for no effect and ±100 for the full control effect; potency is the fitted concentration of half-maximal effect.
SMILES,"activity change, negative = inhibition",Potency
O=C(CSc1nc2ccccc2n1Cc1ccccc1Cl)N/N=C/c1ccccc1C(=O)O,inactive: 4.97% [at 9.22 µM],
S=c1[nH]nc(COc2ccccc2)n1/N=C/c1ccccn1,,inactive
O=[N+]([O-])c1ccc(N=Cc2sc3ccccc3c2O)cc1,,inactive
COc1cc(C2C3=C(CC(C)(C)CC3=O)OC(N)=C2[N+](=O)[O-])ccc1O (stereo unspecified),,"inconclusive: 5.62 µM [inhibitor, single point]"
CCCCCCn1c(CN2CCN(C)CC2)nc2c1c(=O)n(C)c(=O)n2C,,inactive
O=[N+]([O-])c1ccc(N/N=C2\CC3CC=CC23)cc1 (stereo unspecified),,"inconclusive: 35.5 µM [inhibitor, single point]"
C=CCn1c(SCC(=O)NCc2ccco2)nnc1-c1ccc2ccccc2n1,,inactive
COc1ccc(C(c2nnnn2Cc2ccccc2)N2CCN(C(=O)c3ccco3)CC2)cc1 (stereo unspecified),,"inconclusive: 3.98 µM [activator, full curve, poor fit]"
COc1ccc(S(=O)(=O)N(C)CC(=O)Nc2ccc3c(c2)OCO3)cc1,,inactive
O=C(Nc1nc2c(Br)cc(Br)cc2c(=O)s1)C1CCC1,inactive: 9.73% [at 9.22 µM],
O=C(NC(c1ccccc1)c1ccccc1)c1ccc(=O)[nH]n1,,"inconclusive: 4.47 µM [activator, partial curve]"
Cc1ccc(N(CC(=O)N2CC(=O)Nc3ccccc32)S(=O)(=O)c2ccc3c(c2)OCCO3)cc1,,inactive
COc1ccc(NC(C)=O)cc1NC(=O)CN1CCN(C2c3ccccc3-c3ccccc32)CC1,,"inconclusive: 35.5 µM [inhibitor, single point]"
O=C(CCNS(=O)(=O)c1ccc(Br)cc1)NC1CCCCC1,,inactive
CC1(C)Oc2ccc(C(=O)NN)cc2NC1=O,,inactive
C=CCn1c(SCc2nc3ccccc3c(=O)[nH]2)nc2scc(C3CC3)c2c1=O,inactive: -10.8% [at 9.22 µM],
CCCOc1ccccc1N/C(=N/c1nc(C)cc(C)n1)NC(=O)Nc1ccc(Cl)cc1,,"inconclusive: 10 µM [inhibitor, single point]"
CCOC(=O)/C=C1\SCC(=O)N1CC(=O)Nc1ccc2c(c1)CCC2,,"inconclusive: 0.562 µM [activator, partial curve]"
CC(=O)N1CCN(C(=S)c2ccc(N(C)C)cc2)CC1,,inactive
c1ccc(CN2CCN(c3ncnc4c3[nH]c3ccccc34)CC2)cc1,,"inconclusive: 7.08 µM [inhibitor, partial curve]"
O=C1OC(/C(=C\Nc2cc(Cl)ccc2O)[N+](=O)[O-])c2ccccc21 (stereo unspecified),inactive: -1.09% [at 9.22 µM],

# Looked up by structure from the entries so far (2):
SMILES,"activity change, negative = inhibition",Potency
CC1(C)Oc2ccc(C(=O)NN)cc2NC1=O,,inactive
Cc1ccc(N(CC(=O)N2CC(=O)Nc3ccccc32)S(=O)(=O)c2ccc3c(c2)OCCO3)cc1,,inactive
